The target in assay [1] is T1, Transmembrane and tetratricopeptide repeat (TPR) repeat-containing protein 3 (TMTC3) (human (endogenous in KYSE450, KYSE410, KYSE180)) (UniProt Q6ZXV5).
T1 sequence: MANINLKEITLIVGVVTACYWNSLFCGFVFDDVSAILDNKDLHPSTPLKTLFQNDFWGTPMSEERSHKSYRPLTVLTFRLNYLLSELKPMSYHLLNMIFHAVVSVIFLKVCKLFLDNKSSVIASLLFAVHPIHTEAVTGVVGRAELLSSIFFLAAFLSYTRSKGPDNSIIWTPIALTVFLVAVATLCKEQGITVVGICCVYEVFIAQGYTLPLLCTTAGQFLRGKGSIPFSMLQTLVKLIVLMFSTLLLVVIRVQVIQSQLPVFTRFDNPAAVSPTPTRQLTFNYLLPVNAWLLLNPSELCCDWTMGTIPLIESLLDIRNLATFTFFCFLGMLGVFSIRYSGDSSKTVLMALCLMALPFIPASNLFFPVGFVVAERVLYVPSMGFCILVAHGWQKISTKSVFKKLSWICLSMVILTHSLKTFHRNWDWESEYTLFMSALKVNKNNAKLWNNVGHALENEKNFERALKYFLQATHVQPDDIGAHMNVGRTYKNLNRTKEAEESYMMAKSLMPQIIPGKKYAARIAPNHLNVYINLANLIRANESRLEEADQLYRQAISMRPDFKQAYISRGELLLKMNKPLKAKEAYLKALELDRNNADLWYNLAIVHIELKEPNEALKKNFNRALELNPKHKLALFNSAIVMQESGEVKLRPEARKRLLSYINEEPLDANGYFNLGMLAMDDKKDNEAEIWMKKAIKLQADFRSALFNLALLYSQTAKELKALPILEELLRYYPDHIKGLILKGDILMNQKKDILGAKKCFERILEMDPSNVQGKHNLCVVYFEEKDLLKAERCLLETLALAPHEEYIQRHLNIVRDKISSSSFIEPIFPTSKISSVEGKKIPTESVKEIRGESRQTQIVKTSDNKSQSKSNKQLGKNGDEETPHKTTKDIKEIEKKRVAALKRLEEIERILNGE
Description: co-IP; KYSE450 and KYSE180 cells transfected with Flag-tagged full-length or truncated IMPDH2 plasmids; immunoprecipitation with anti-TMTC3 antibody on protein A/G agarose beads, immunoblotting with anti-Flag antibody. On the technique in general: Immunoblotting shows a protein as a band on a membrane.

For assay [2], the target named is T1, Transmembrane and tetratricopeptide repeat (TPR) repeat-containing protein 3 (TMTC3) (human (endogenous in KYSE450, KYSE410, KYSE180)). Put plainly: co-IP; endogenous proteins in lysates of KYSE410 and KYSE450 cells; anti-TMTC3 or anti-IMPDH2 antibody or IgG, 4 °C for 12 h, protein A/G beads.
In assay [3] the target is inosine-5'-monophosphate dehydrogenase 2 (IMPDH2) (human (endogenous in KYSE450, KYSE410)) (UniProt P12268). The description is as above.

No constants are given. Whether binding was seen depends on the method and setting. Binding seen in cells or lysates may run through a third protein. Some entries that bind do so weakly or less than the wild type.

With “Flag-tagged full-length IMPDH2 (from UniProt P12268 1-514) (enzyme)”, the binding entry in assay [1] is listed as “binds”.

Consider “inosine-5'-monophosphate dehydrogenase 2 (IMPDH2) (from UniProt P12268 1-514) (enzyme)”, for which, in assay [2], the binding result was “binds”.

B1: Transmembrane and tetratricopeptide repeat (TPR) repeat-containing protein 3 (TMTC3) (protein, UniProt Q6ZXV5 1-915)
chain: T1 sequence
As to B1, the binding entry in assay [3] is given as “binds”.
